Test results from patent publication US9193755B1, “TFEB variants and uses thereof” (Fondazione Telethon, priority 2011, dated 2015).
Where a chain is given by its changes, count along the chain named. Numbers in names are those of the source.

B1: TFEB(S142A): TFEB variant with serine 142 mutated to alanine (protein, UniProt P19484 1-476, looked up, variant S142A)
Transcription factor EB: MASRIGLRMQLMREQAQQEEQRERMQQQAVMHYMQQQQQQQQQQLGGPPTPAINTPVHFQSPPPVPGEVLKVQSYLENPTSYHLQQSQHQKVREYLSETYGNKFAAHISPAQGSPKPPPAASPGVRAGHVLSSSAGNSAPNAPMAMLHIGSNPERELDDVIDNIMRLDDVLGYINPEMQMPNTLPLSSSHLNVYSSDPQVTASLVGVTSSSCPADLTQKRELTDAESRALAKERQKKDNHNLIERRRRFNINDRIKELGMLIPKANDLDVRWNKGTILKASVDYIRRMQKDLQKSRELENHSRRLEMTNKQLWLRIQELEMQARVHGLPTTSPSGMNMAELAQQVVKQELPSEEGPGEALMLGAEVPDPEPLPALPPQAPLPLPTQPPSPFHHLDFSHSLSFGGREDEGPPGYPEPLAPGHGSPFPSLSKKDLDLMLLDDSLLPLASDPLLSTMSPEASKASSRRSSFSMEEGDVL
modifications: 3xFlag tag
notes: TFEB variant with serine 142 mutated to alanine
B2: TFEB S142D: phospho-mimetic mutant of TFEB (protein, UniProt P19484 1-476, looked up, variant S142D)
Transcription factor EB: B1 Transcription factor EB with A142D
modifications: 3xFlag tag

Tested on: HeLa cells
Test: Subcellular localization and mobility of mutated TFEB-3xFlag in HeLa cells
Type: cell-based, human
Conditions: normal versus starved media, compared to WT TFEB
Experimental: Cells were transiently transfected with DNA plasmids pRK5-mycPAT1, pCEP4-TFEB-his, pC1G2-TFEB, and p3 x FLAG-CMVTFEB using lipofectamine2000 or LTX (Invitrogen) according to the protocol from manufacturer. Site-direct mutagenesis was performed according to the manufacturer instructions (Stratagene) verifying the correct mutagenesis by sequencing.
Cells were seeded at 50% of confluence in 6 well dishes and serum starved overnight (ON). Normal medium was added the following day either in presence of DMSO or kinase inhibitors. Subcellular fractionation was carried out as previously reported. Briefly, cells were lysed in 0.5 Triton X-100 lysis buffer (50 mM Tris-HCl, 0.5% triton, 137.5 mM NaCl, 10% glycerol, 5 mM EDTA supplemented with fresh protease and phosphatase inhibitors. Supernatant represented cytosolic fraction while nuclear pellet was washed twice and lysed in 0.5 Triton X-100 buffer 0.5% SDS and sonicated.

Row | Molecule | molecular weight migration / shift of TFEB mutant
1 | B1 | migrates at lower molecular weight in normal but not in starved media
2 | B2 | reduced shift during starvation
